The values that follow come from article PMC5225419.

Amino acid sequences for entries named in this document (tags omitted). A change or cut given only in a name is not applied to a line headed by its entry. Chains listed by the source or under a name are the forms on record and can include a tag or linker.
UniProt O94811: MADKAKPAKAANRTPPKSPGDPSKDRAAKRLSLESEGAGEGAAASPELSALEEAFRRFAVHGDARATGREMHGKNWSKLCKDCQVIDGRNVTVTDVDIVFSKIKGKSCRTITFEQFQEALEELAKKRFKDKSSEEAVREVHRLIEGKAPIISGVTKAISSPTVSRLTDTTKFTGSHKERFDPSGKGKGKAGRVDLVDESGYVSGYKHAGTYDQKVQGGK
CORE segment of TPPP/p25 (delta 3–43/delta 175–219) fused to mVenus BiFC fragments (pBiFC-VN1-173 or pBiFC-VC155-238) (O94811, form named): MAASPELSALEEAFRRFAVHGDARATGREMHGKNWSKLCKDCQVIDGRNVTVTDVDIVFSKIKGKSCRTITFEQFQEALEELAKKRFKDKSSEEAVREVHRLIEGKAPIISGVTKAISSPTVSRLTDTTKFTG

No constants are given. Whether binding was seen depends on the method and setting. For some of these results: In cells and extracts the contact can be indirect. Some entries that bind do so weakly or less than the wild type.

Assay [1] has as its target CORE segment of TPPP/p25 (delta 3–43/delta 175–219) fused to mVenus BiFC fragments (pBiFC-VN1-173 or pBiFC-VC155-238) (human) (UniProt O94811). The experiment in a line: split reporter; mVenus BiFC (fragments 1-173 and 155-238) in HeLa cells co-transfected with 0.3 ug of each plasmid; fluorescence microscopy; empty mVenus pair as control.
Assay [2] deals with FL TPPP/p25 fused to mVenus BiFC fragments (pBiFC-VN1-173 or pBiFC-VC155-238) (human) (UniProt O94811). The assay is described as above.
Assay [3] has as its target full length (FL) human recombinant TPPP/p25 (Tubulin Polymerization Promoting Protein) (human) (UniProt O94811). The experiment in a line: ELISA; sandwich ELISA: plate coated with the TPPP/p25 mAb; TPPP/p25 form added (serial dilutions from 5 uM, or 1 uM) in PBS, 1 h, room temperature, without or with 100 uM DTE; dimers/oligomers detected with the same mAb biotinylated and peroxidase-avidin; no tubulin/MT; both purified. A general note: In an ELISA, binding on a coated surface is turned into a signal by an enzyme label.

Assay [4] has the same target. The experiment in a line: ELISA; sandwich ELISA: 1 uM FL or CORE TPPP/p25 reduced with 100 uM DTE (30 min, room temperature) and captured on the mAb-coated plate; excess DTE removed; the different TPPP/p25 forms added; dimers detected with biotinylated mAb; PBS; no tubulin/MT; both purified.

As for “CORE segment of TPPP/p25 (delta 3–43/delta 175–219) fused to mVenus BiFC fragments (pBiFC-VN1-173 or pBiFC-VC155-238) (from UniProt O94811 1-174) (domain or fragment)”, the binding result in assay [1] was “binds”. Take “FL TPPP/p25 fused to mVenus BiFC fragments (pBiFC-VN1-173 or pBiFC-VC155-238) (from UniProt O94811 1-219) (other; other documents disagree on this pair)”: in assay [2], the binding entry is “binds”. Consider “full length (FL) human recombinant TPPP/p25 (Tubulin Polymerization Promoting Protein) (from UniProt O94811 1-219) (other; other documents disagree on this pair)”, for which the binding result in assay [3] and in assay [4] was “binds” throughout.
